According to publication PMC12040169 (PLOS Biology, 2025):
The other results are listed elsewhere or left out.

tested on: T1, CTL2-GFP (C. trachomatis L2/434/Bu, GFP-expressing); parameters: species or system HeLa; Intracellular C. trachomatis growth in HeLa cells, bulk GFP fluorescence relative to DMSO; settings: bulk GFP, single well; 28.5 h, 10 µM; inhibitor
T1 construct: L2/434/Bu, GFP-expressing

Going from `Cc1ccc(S(=O)(=O)Nc2ccsc2C(=O)N2CCOCC2)cc1[N+](=O)[O-]` [CBK004612] to `O=C(O)c1cccc(NS(=O)(=O)c2ccccc2)c1` [CBK155710], the “% of control remaining” value rises from 110.05% to 120.77%.

Going from `COc1ccc(CN2CCCN(c3cc(OC4CCCCC4)ncn3)CC2)cc1` [CBK083278T] to `COc1cccc(N2CCN(CCCOc3ccc(F)cc3)CC2)n1` [CBK010355F], the “% of control remaining” value falls from 168.429% to 111.494%.

First: CCC(C)c1ccc(NC(=S)NCc2ccccn2)cc1 (stereo not drawn) [CBK266966]
Second: Cc1ccccc1NC(=O)CCC(=O)N/N=C/c1ccncc1 [CBK262016]
The “% of control remaining” value of the first is higher: 144.454% for the first, 123.561% for the second.

Going from `O=C(Nc1ccc(OC(F)(F)F)cc1)N1CCN(Cc2ccc3c(c2)OCO3)CC1` [CBK074754] to `CCOc1ccc(CN2CCN(C(=O)c3ccc(-c4ccccc4)cc3)CC2)cc1` [CBK263399], the “% of control remaining” value falls from 103.661% to 95.5247%.

Compared with `CCC(CC)C(=O)N1CCCC1c1nn(C)cc1-c1cc(C)no1` (stereo not drawn) [CBK283452], `Cn1cc(Cl)c(C2CCCCCN2C(=O)c2cc(C3CC3)on2)n1` (stereo not drawn) [CBK285120] is lower in “% of control remaining” value: 156.994% for the first, 111.765% for the second.

First: Brc1cccc(/C=N/N2CCN(Cc3cccc4ccccc34)CC2)c1 [CBK263011]
Second: O=C(NC(c1ccccc1)c1ccccc1)N1CCN(c2ccccc2)CC1 [CBK155177]
The “% of control remaining” value of the first is higher: 114.993% for the first, 109.997% for the second.

Compared with `CCn1ncc(S(=O)(=O)N2CCCC(c3cccc(-c4cccc(OC)c4)n3)C2)c1C` (stereo not drawn) [CBK286155], `COc1cccc(Oc2cnc(-c3cccc(C(F)(F)F)c3)c(N)n2)c1` [CBK145177] is lower in “% of control remaining” value: 131.616% for the first, 100% for the second.

Going from `CN1CCN(c2nc3ccccn3c(=O)c2/C=C2\SC(=S)N(CCc3ccccc3)C2=O)CC1` [CBK263131] to `C[C@H](c1ccccc1)n1c(=O)[nH]c2ncc(-c3ccc(C(=O)N4CCN(C)CC4)cc3)nc21` [CBK064559], the “% of control remaining” value falls from 100% to 95.5715%.

Compared with `CC(C)(C)c1ccc(S(=O)(=O)N2CCCC[C@H]2COC(=O)CCC(=O)O)cc1` [CBK200063], `O=c1[nH]c(=O)c2cc(S(=O)(=O)N3CCCCC3CN3CCCCC3)ccc2[nH]1` (stereo not drawn) [CBK286393] is higher in “% of control remaining” value: 108.933% for the first, 135.992% for the second.

First: COC(=O)C1CCN(Cc2ccc(-c3nnn(CC(=O)NCc4ccc(C)cc4)n3)cc2)C1 (stereo not drawn) [CBK155406T]
Second: COc1ccc(CCNC2CCN(Cc3ccccc3)CC2c2ccccc2)cc1OC (stereo not drawn) [CBK286166]
The “% of control remaining” value of the first is higher: 125.968% for the first, 124.16% for the second.

First: O=S(=O)(Nc1ccc2[nH]ccc2c1)c1cc(C(F)(F)F)cc(C(F)(F)F)c1 [CBK156330]
Second: O=S(=O)(Nc1ccc(C(F)(F)F)cc1Cl)c1cc(Br)c(Cl)s1 [CBK057196]
The “% of control remaining” value of the first is higher: 108.268% for the first, 38.4844% for the second.

Compared with `FC(F)(F)c1nnc(-c2cc3sccc3s2)o1` [CBK006303], `CCCC(=O)Nc1nnc(-c2ccc(Cl)cc2)o1` [CBK287594] is higher in “% of control remaining” value: 110.468% for the first, 126.422% for the second.

First: CC(CC(=O)N1CCC(Oc2ccccc2F)CC1)n1cccn1 (stereo not drawn) [CBK282118]
Second: O=C(CCOc1ccccc1)Nc1cncc(OC2CCNCC2)n1 [CBK026734T]
The “% of control remaining” value of the first is higher: 147.084% for the first, 123.006% for the second.

First: C=C(C)CN1CCN(CC(CC(=O)NCc2ccccc2)C(=O)O)CC1 (stereo not drawn) [CBK286823]
Second: O=C(CN1CCC(C(=O)NC(c2ccccc2)c2ccsc2)CC1)c1ccc(F)cc1 (stereo not drawn) [CBK148432]
The “% of control remaining” value of the first is higher: 140.402% for the first, 100% for the second.

First: O=C(Nc1cccnc1)c1ccc(F)cc1Cl [CBK288246]
Second: O=C(CN1CCC(C(=O)c2ccc(F)cc2)CC1)Nc1ncccn1 [CBK149131]
The “% of control remaining” value of the first is higher: 123.418% for the first, 109.218% for the second.

First: CCN(CC)C1CCN(C(=O)Nc2cc(NC(C)=O)ccc2F)C1 (stereo not drawn) [CBK305207]
Second: CC(=O)c1ccc(NC(=O)N[C@H]2CO[C@H]3[C@@H]2OC[C@H]3OCC(N)=O)cc1 [CBK289460]
The “% of control remaining” value of the first is higher: 135.188% for the first, 105.625% for the second.

Compared with `CC(C)c1noc(NCCc2cn3c(n2)CCCC3)n1` [CBK306444], `Cc1occc1-c1nn(CCN2CCCCC2)c(=O)o1` [CBK283815] is higher in “% of control remaining” value: 100.093% for the first, 158.6% for the second.

Compared with `CCOC(=O)c1cn[nH]c1N` [CBK175217], `CCOC(=O)c1c(C)nc(-c2ccccc2)nc1NC(=O)C(C)C` [CBK028118] is lower in “% of control remaining” value: 110.004% for the first, 109.956% for the second.

Compared with `CCCC/C=C/c1nccnc1NCc1cccs1` [CBK038090], `OCCCNc1nccnc1-c1ccco1` [CBK037346] is lower in “% of control remaining” value: 137.235% for the first, 102.964% for the second.

Compared with `CN(C)Cc1ccccc1C(O)c1ccccc1` (stereo not drawn) [CBK261277], `O=C(O)C(Cc1ccccc1)N1C(=O)/C(=C/C=C/c2ccccc2)SC1=S` (stereo not drawn) [CBK263496] is lower in “% of control remaining” value: 120.367% for the first, 100% for the second.

Going from `O=C(O)Cn1c(=O)[nH]c2c(-c3ccccc3)c[nH]c2c1=O` [CBK287218] to `CCCS(=O)(=O)n1c(=O)n(CC(=O)c2ccccc2OC)c2ccccc21` [CBK106498], the “% of control remaining” value falls from 138.346% to 131.58%.

Going from `Cc1ccc(-c2ncc(OCCn3ccnc3)nc2N)cc1C` [CBK145148] to `COc1cc2ncnc(NCc3ccccc3)c2cc1OC` [CBK287984], the “% of control remaining” value rises from 100% to 141.467%.

First: O=C(NC1CCCCC1)c1ccc(-c2ccccc2)nc1NCCc1ccccn1 [CBK076553]
Second: O=C(NC(c1ccc(-c2ccccc2)cc1)c1cnccn1)C1CCN(CCOc2ccc3ccccc3c2)CC1 (stereo not drawn) [CBK147982]
The “% of control remaining” value of the first is higher: 131.585% for the first, 117.546% for the second.

First: CC(C)Oc1ccc(C(=O)C2=C(O)C(=O)N(Cc3cccnc3)C2c2cccc([N+](=O)[O-])c2)cc1 (stereo not drawn) [CBK264936]
Second: CN(C)CCN1C(=O)C(O)=C(C(=O)c2ccc(S(=O)(=O)N(C)C)cc2)C1c1cccnc1 (stereo not drawn) [CBK264729]
The “% of control remaining” value of the first is higher: 131.373% for the first, 119.789% for the second.

Compared with `CS(=O)(=O)Nc1ccc2cc(-c3ccccc3)cnc2n1` [CBK061899], `COc1c(C)cccc1C(=O)N1CCCCC1c1ncc(C(=O)Nc2ccccc2)c(C)n1` (stereo not drawn) [CBK285841] is higher in “% of control remaining” value: 127.415% for the first, 132.035% for the second.

Going from `O=C(Cn1c(-c2cccs2)cc2cccnc21)N1CCCC1` [CBK282453] to `O=C(Cn1c(=O)n(Cc2ccco2)c2ncccc21)N1CCCC1` [CBK284708], the “% of control remaining” value rises from 131.592% to 143.11%.

Going from `O=P(O)(CN1CCCCC1)C1CCCCC1O` (stereo not drawn) [CBK262325] to `CSc1ncc(C(=O)NC2CCCC2)c(NC2CCCC2)n1` [CBK291223], the “% of control remaining” value rises from 119.884% to 121.19%.

First: CC(C)NC(=O)N1Cc2nc[nH]c2C[C@H]1c1nc(-c2ccc(OC(F)(F)F)cc2)no1 [CBK288960]
Second: OCc1ccc(CN2C[C@H](O)C[C@H]2c2nc(-c3cnccn3)no2)o1 [CBK288832]
The “% of control remaining” value of the first is lower: 93.5087% for the first, 129.008% for the second.

First: Cc1nc(C)n(CC2CCCCN2Cc2cn3ccccc3c2C#N)n1 (stereo not drawn) [CBK306102]
Second: Cc1cc(-c2nnc(SCCC(=O)Nc3ccccc3)o2)no1 [CBK268737]
The “% of control remaining” value of the first is higher: 122.984% for the first, 120.583% for the second.

Going from `Cn1cccc1C(=O)N[C@H]1C[C@H]2C(=O)Nc3ccc(/C=C/c4ccccc4)cc3C(=O)N2C1` [CBK289367] to `C[C@@H](c1ccccc1)N1C(=O)[C@@H]2CN(S(=O)(=O)c3cccs3)CCN2C1=O` [CBK289635], the “% of control remaining” value rises from 98.5058% to 126.132%.

First: CC#Cc1cn([C@H]2C[C@@H](O)[C@@H](CO)O2)c(=O)[nH]c1=O [CBK201182]
Second: COc1cc2oc(=O)c(CC(=O)N3CCCC(C(=O)O)C3)c(C)c2cc1Cl (stereo not drawn) [CBK286754]
The “% of control remaining” value of the first is higher: 148.986% for the first, 113.406% for the second.

First: CCn1c(CC2CCN(C(=O)CCN3CCCCO3)CC2)nn(C)c1=O [CBK307217]
Second: Cc1nc(S(=O)(=O)N2CCC(OCC3CC3)C2)cn1C (stereo not drawn) [CBK304668]
The “% of control remaining” value of the first is higher: 151.232% for the first, 110.712% for the second.

Compared with `CC(C)(C)c1nc(COc2ccc3nonc3c2)no1` [CBK005831], `CCOc1ccc(/C=C2\SC(=O)NC2=S)cc1` [CBK027996] is lower in “% of control remaining” value: 130.418% for the first, 120.069% for the second.

First: Cc1ccc(C#N)cc1S(=O)(=O)NC(=O)COCC1CC1 [CBK304427]
Second: COc1cccc2c1cc(C(=O)NCCCC1CCOC1)n2C (stereo not drawn) [CBK283284]
The “% of control remaining” value of the first is lower: 110.699% for the first, 116.611% for the second.

Compared with `CCOC(=O)C1CSCN1C(=O)c1cnn(C(CC)CC)c1C` (stereo not drawn) [CBK304759], `C=CCn1c2cc(C)oc2c2cnn(CC(=O)N(C)C)c(=O)c21` [CBK283326] is higher in “% of control remaining” value: 96.7986% for the first, 135.003% for the second.

First: Oc1nc(O)c2c(n1)NC1(CCC1)[C@@H]1C[C@@H](O)[C@@H](O)[C@H]21 [CBK303249]
Second: CC(C)C(=O)N1CC2(CCN(Cc3cc(=O)[nH]c(=O)[nH]3)CC2)c2ccccc21 [CBK144602T]
The “% of control remaining” value of the first is higher: 122.531% for the first, 104.824% for the second.

Compared with `Cc1n[nH]c(O)c1C(c1cccc([N+](=O)[O-])c1)c1c(C)n[nH]c1O` [CBK264753], `O=C(Nc1ccc(-c2nc3ccccc3o2)c(O)c1)c1ccc(-c2ccc([N+](=O)[O-])cc2)o1` [CBK263416] is lower in “% of control remaining” value: 100% for the first, 71.8532% for the second.

Compared with `O=C(CCNS(=O)(=O)c1ccccc1)OCc1ccc([N+](=O)[O-])cc1` [CBK296659], `O=C(Cc1ccc(Cl)cc1)Nc1ccc(Oc2ccc3c(c2)C(=O)NC3=O)cc1` [CBK265869] is higher in “% of control remaining” value: 130.129% for the first, 182.419% for the second.

First: O=C(Nc1c(F)cc(F)cc1OC1CCNCC1)c1coc2c1C(=O)CCC2 [CBK050331T]
Second: O=C(c1ccc(N2CCN(C3CC(=O)N(Cc4cccs4)C3=O)CC2)cc1)c1cccnc1 (stereo not drawn) [CBK269040]
The “% of control remaining” value of the first is lower: 97.7439% for the first, 138.419% for the second.
